From article PMC10303200 (ACS Central Science, 2023)
Structures were worked out from names or drawings and are uncertain.

The chains behind the UniProt entries cited, without tags or fusion partners. Residues count along the entry.
UniProt Q9Y286, 19-345 limits assumed: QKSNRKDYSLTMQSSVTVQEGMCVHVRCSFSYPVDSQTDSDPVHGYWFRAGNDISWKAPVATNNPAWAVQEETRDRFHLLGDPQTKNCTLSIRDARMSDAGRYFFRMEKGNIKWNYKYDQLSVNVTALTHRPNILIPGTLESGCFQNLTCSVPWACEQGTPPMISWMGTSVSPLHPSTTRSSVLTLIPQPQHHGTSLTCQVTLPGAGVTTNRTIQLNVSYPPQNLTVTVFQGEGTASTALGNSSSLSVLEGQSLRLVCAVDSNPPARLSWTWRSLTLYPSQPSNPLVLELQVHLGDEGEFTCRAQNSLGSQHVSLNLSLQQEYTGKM

Molecular target: Sig7-Fc (Homo sapiens, UniProt Q9Y286)
Test: COIN-CaR-nMS
Conditions: N-glycan natural libraries and purified oligosaccharides; pH 6.9
From the text: For most glycosylated GBPs, glycan binding measurements by nMS are challenging because the heterogeneity (micro- and macroheterogeniety) of GBP species makes quantifying the free and ligand-bound glycoforms difficult. As a result, detection of glycan ligands of glycosylated GBPs is usually performed using CaR-nMS. In CaR-nMS, glycan ligands bound (noncovalently) to a GBP are released as ions in the gas phase by collisional activation of the GBP-glycan complexes and detected. The results of CaR-nMS screening performed on glycan libraries of known concentrations enable GBP-glycan affinity rankings to be constructed from the relative abundances of released ligands. Generating titration curves from the relative abundances of released ligands in CaR-nMS experiments is generally not possible due to tip-to-tip variability in released ligand signal. The COIN approach enables quantification with CaR-nMS (COIN-CaR-nMS). […] Because PL dissociates to free P and L in the COIN-CaR-nMS experiment, Ft is calculated from eq 14 [drawing 19] […]
COIN-CaR-nMS measurements were also performed on SNA in the presence of two ligands (G21 and G23) at varying relative concentrations—G21 (30 μM) and G23 (10 nM–10 μM). Importantly, the measured Kd were insensitive to the relative concentrations (Table S7). […]
The time-resolved glycan concentrations were calculated from the known affinity (K d) of the […]

In the case of `CC(=O)N[C@H]1[C@H](O[C@@H]2[C@H](O[C@]3(C(=O)O)C[C@H](O)[C@@H](NC(C)=O)[C@H]([C@H](O)[C@@H](CO)O[C@]4(C(=O)O)C[C@H](O)[C@@H](NC(C)=O)[C@H]([C@H](O)[C@@H](CO)O[C@]5(C(=O)O)C[C@H](O)[C@@H](NC(C)=O)[C@H]([C@H](O)[C@H](O)CO)O5)O4)O3)[C@@H](O)[C@H](O[C@H]3[C@H](O)[C@@H](O)C(O)O[C@@H]3CO)O[C@@H]2CO)O[C@H](CO)[C@H](O)[C@@H]1O[C@@H]1O[C@H](CO)[C@H](O)[C@H](O)[C@H]1O` (stereo partly shown), the Kd is reported as “NQ”.
